The other results are listed elsewhere or left out.

The subject of this assay is T1, CTL2-GFP (C. trachomatis L2/434/Bu, GFP-expressing).
T1 construct: L2/434/Bu, GFP-expressing
On the set-up: species or system HeLa; Intracellular C. trachomatis growth in HeLa cells, bulk GFP fluorescence relative to DMSO. The settings on record: 28.5 h, 10 µM; inhibitor.
For the compound `CC(N)c1cc2ccccc2o1` (centres unmarked) [CBK001492C], the “% of control remaining” value is on record as 97.0491%. As for `COC(=O)c1nn(Cc2ccc(OC)cc2)c2ccccc12` [CBK093526], the “% of control remaining” value is 126.676%. Regarding `O=C(O)c1nn(Cc2ccc(Cl)c(Cl)c2)c2ccccc12` [CBK088455], the “% of control remaining” value was found to be 100%. With `O=C(O)CP(=O)(O)c1ccc(Cl)cc1` [CBK019291], the “% of control remaining” value came out at 113.513%. As for `Cc1cn(-c2ccc(OC(=O)NC(C)(C)C)c(Cl)c2)c(=O)n1C` [CBK025991], the “% of control remaining” value was 111.921%.

With `O=C(NNc1c(Cl)cccc1Cl)C(O)(c1ccccc1)c1ccccc1` [CBK262739], the “% of control remaining” value was determined as 68.2881%. In the case of `O=[N+]([O-])c1ccc(Cl)cc1CN1CCN(c2ccccc2)CC1` [CBK261556], the “% of control remaining” value is listed as 100%.

With `COc1cc(C(=O)Nc2ccc3c(c2)COC2(CCN(C(=O)OC(C)(C)C)CC2)O3)cc(OC)c1OC` [CBK091527], the “% of control remaining” value is listed as 100%. The same measure for `O=C(NCCCn1ccnc1)c1cc([N+](=O)[O-])cc([N+](=O)[O-])c1` [CBK261773]: 68.9833%; for `CNC(=O)Oc1ccc(C2(C)SCCS2)cc1` [CBK023078]: 90.7167%.

For `CN(C)[C@H]1CCC[C@@H]1C(=O)Nc1ccc(Cl)c(Cl)c1` [CBK003406], the “% of control remaining” value is 51.8308%. In the case of `COc1ccc(CCn2nc(C(=O)O)c3ccccc32)cc1` [CBK093525], the “% of control remaining” value is listed as 149.351%. With `CCCCN1C(=O)C(O)(c2c(C)nn(CCC#N)c2N)c2ccccc21` (centres unmarked) [CBK306211], the “% of control remaining” value stood at 102.297%.

On to `Clc1cccc(N2CCNCC2)n1` [CBK001379], for which the “% of control remaining” value is given as 123.249%. On to `CCOc1ccc(N2C(=O)/C(=C/c3ccc(Br)cc3)C(=O)NC2=S)cc1` [CBK263305], for which the “% of control remaining” value is listed as 100%. Regarding `Cc1cc(/C=C2\C(=O)NC(=O)N(Cc3ccccc3Cl)C2=O)c(C)n1-c1ccc(C(=O)O)cc1` [CBK265602], the “% of control remaining” value worked out at 100%.

Turning to `Cc1cc(/C=C2\C(=O)NC(=O)N(C)C2=O)c(C)n1-c1ccc(Oc2ccc([N+](=O)[O-])cn2)cc1` [CBK264294], the “% of control remaining” value turned out to be 100%.

On to `CCCN(CCc1cccnc1)C1Cc2cc(OC)c(OC)cc2C1` [CBK023935C], for which the “% of control remaining” value is on record as 137.172%. For the compound `NS(=O)(=O)c1ccc(N/C=C2\C(=O)NC(=O)N(Cc3ccccc3Cl)C2=O)cc1` [CBK265586], the “% of control remaining” value is given as 100%. In the case of `O=C(O)C(O)(c1ccccc1)c1cccs1` (centres unmarked) [CBK022808], the “% of control remaining” value turned out to be 109.868%. Regarding `CC1CN(C(=O)Oc2ccccc2)C(C)CN1CCCC(c1ccc(F)cc1)c1ccc(F)cc1` (centres unmarked) [CBK024993C], the “% of control remaining” value is 78.4487%. `COc1cc(/C=N/O)ccc1Oc1ccc([N+](=O)[O-])cc1[N+](=O)[O-]` [CBK261651]: the “% of control remaining” value came out at 120.032%.

`COc1ccccc1N1C(=O)NC(=O)/C(=C/NCCCO)C1=O` [CBK261618]: the “% of control remaining” value came out at 100%. As for `O=C1NC(=O)N(c2ccc(Cl)cc2)C(=O)/C1=C\NC(CO)(CO)CO` [CBK264421], the “% of control remaining” value is 100%. With `CCOc1ccc(N2C(=O)NC(=O)/C(=C\NC(C)(CO)CO)C2=O)cc1` [CBK261437], the “% of control remaining” value is recorded as 100%. Turning to `Cc1cccc(OP(=O)(O)Oc2cccc(C)c2C)c1C` [CBK261316], the “% of control remaining” value was found to be 100%. The figure for `CCN(CC)CCN(C)Cc1ccc2ccc3cccc4ccc1c2c34` [CBK261859] is 95.2802%; for `CCCCN1C(=O)C(O)(c2c(C)nn(CCO)c2N)c2ccccc21` (centres unmarked) [CBK304286] it is 112.546%. In the case of `CN(C)C(=O)OCCn1c(=O)oc2cc(Cl)ccc21` [CBK306455], the “% of control remaining” value is given as 87.8619%.

Take `Cc1cccc(N2C(=O)NC(=O)/C(=C/NC3CCN(Cc4ccccc4)CC3)C2=O)c1` [CBK261827]: the “% of control remaining” value was determined as 100%. Turning to `COc1ccc2c(c1)COC1(CCN(C(=O)Nc3ccc(N(C)C)cc3)CC1)O2` [CBK060753], the “% of control remaining” value amounted to 100%.

Consider `COc1cc(Cl)ccc1NC(=O)Oc1cccc2cnccc12` [CBK012882], for which the “% of control remaining” value is reported as 117.676%.

With `COc1cc(/C=C2\C(=O)NC(=O)N(c3ccc([N+](=O)[O-])cc3)C2=O)ccc1OCC(=O)O` [CBK265418], the “% of control remaining” value is listed as 100%. Take `CCOc1ccccc1CN1CCN(C)CC1` [CBK261577]: the “% of control remaining” value is listed as 100%. As to `O=C(Nc1cc([N+](=O)[O-])ccc1O)c1cccc(C(=O)Nc2cc([N+](=O)[O-])ccc2O)c1` [CBK261168], the “% of control remaining” value is reported as 119.853%. Take `COc1cccc2c1OCCC2CNCCCc1ccccc1` (centres unmarked) [CBK007716]: the “% of control remaining” value was determined as 109.985%. Take `Cc1ccc(OP(=O)(NCCN2CCOCC2)Oc2ccc(C)cc2)cc1` [CBK261802]: the “% of control remaining” value came to 100%.

On to `Cc1cc(Cl)c(OC(=O)NC2CCCCC2)cc1C` [CBK022948], for which the “% of control remaining” value was found to be 120.167%.

As to `CN(C)C(=O)c1ccc(Cn2nc(C(=O)Nc3nccs3)c3ccccc32)cc1` [CBK047701], the “% of control remaining” value stood at 103.165%. `NC(=O)C1=CN([C@@H]2O[C@H](CO)[C@H](O)C2O)C2N=CN=C(N)C12` (some centres unmarked) [CBK201209]: the “% of control remaining” value is given as 115.282%. Take `CNC(=O)Oc1ccccc1/C=N/N(C)C` [CBK023194]: the “% of control remaining” value is 113.77%. Take `COC(=O)c1cccc2c3c(n(Cc4ccccc4)c12)CCCC3=O` [CBK036304]: the “% of control remaining” value is on record as 65.6295%. As to `CC(C)(C)OC(=O)N1CCC2(CC1)OCc1cc(-c3cccc(OCC(=O)N4CCOCC4)c3)ccc1O2` [CBK105254], the “% of control remaining” value came to 100%. For `NC(=O)Cn1cc(C(=O)COc2ccccc2)c2ccccc21` [CBK267650], the “% of control remaining” value worked out at 110.609%. Regarding `O=C(Cn1cc(C(=O)c2ccco2)c2ccccc21)NCCc1c[nH]c2ccccc12` [CBK267509], the “% of control remaining” value was found to be 158.62%.

`COc1cc(C=C2C(=O)NC(=O)NC2=O)cc(I)c1OCc1ccc(Cl)cc1Cl` [CBK262528]: the “% of control remaining” value worked out at 100%. For `C=CCSc1nnc(OC(=O)N(C)C)n1-c1ccc(Cl)cc1` [CBK004817], the “% of control remaining” value worked out at 120.417%.

Turning to `CN(Cc1ccc(-c2ccc(S(C)(=O)=O)cc2)nc1)C1CCN(C(=O)Oc2ccc(F)cc2)CC1` [CBK166097], the “% of control remaining” value was 124.332%. With `O=C(Cn1cc(/C=C2/C(=O)NC(=S)N(c3ccc(Cl)cc3)C2=O)c2ccccc21)Nc1ccccc1` [CBK263535], the “% of control remaining” value turned out to be 100%.

As for `O=C(N/N=C1/CN2CCC1CC2)c1cccc(O)c1` [CBK262188C], the “% of control remaining” value was 106.4%.

Values taken from publication PMC12040169 (PLOS Biology, 2025).
